In PMC5931576, “Allosteric modulation of the farnesoid X receptor by a small molecule” (Scientific Reports, 2018):

Test system: ATM
Conditions: 20 µM

Cc1ccc(NC(=O)c2ccc(CN3CCN(C)CC3)cc2)cc1Nc1nccc(-c2cccnc2)n1 [compound 4, imatinib, reference compound]
Activity on ATM: no activity
